This is an account of results in article PMC2816667.

Sequences of proteins named here, by UniProt entry; tags and fusion partners are left off.
UniProt P08515, whole entry: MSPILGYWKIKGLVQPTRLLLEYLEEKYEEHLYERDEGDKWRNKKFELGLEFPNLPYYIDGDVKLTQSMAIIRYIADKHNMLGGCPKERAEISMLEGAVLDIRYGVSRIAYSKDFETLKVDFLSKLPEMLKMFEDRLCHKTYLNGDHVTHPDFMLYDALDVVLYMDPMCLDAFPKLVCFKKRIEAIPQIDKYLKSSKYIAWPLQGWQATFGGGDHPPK

Construct, isoform or probe ends are uncertain for at least one entry. Negatives hold for the conditions tested.

The target in the data set is GST (UniProt P08515). Description: EMSA. Conditions: GST alone 'hardly bound at all'; 10 mM Tris-HCl pH 8.0, 40 mM KCl, 6% glycerol, 1 mM DTT, 0.05% NP-40, 10 ng/ul poly(dI-dC), 30 min at 4 C; 4% PAGE in 0.5x TBE at 4 C; protein 0.15-1.35 ug; recombinant protein; label: 32P 5' end label.

Consider “GGCACTTCACTAGCATAACAATGAGGGCTC (double strand) [Oct-4 probe]”, for which the binding result is on record as “no binding”.
